Where a chain is given by its changes, count along the chain named. These are yes or no findings as the source states them, for the method shown. In cells and extracts the contact can be indirect. For part of these data: Binding can be weak; no strength is given. Sequences can lack the tags named with a protein.
Columns and labels:
Experiment in all cases: co-IP; FLAG-TNK1 (WT or mutants) precipitated on anti-DYKDDDDK resin from HEK-293T lysate (10 mM HEPES KOH pH 7.5, 150 mM KCl, 0.01% IGEPAL), 1 h 4 °C, washed with PBS; immunoblotted for 14-3-3 or ubiquitin; in Fig. 2c cells treated with 1 uM kinase inhibitors for 4 h
[1] = biological target: T1, FLAG-TNK1 (wild type) (human) (UniProt Q13470)
T1 sequence: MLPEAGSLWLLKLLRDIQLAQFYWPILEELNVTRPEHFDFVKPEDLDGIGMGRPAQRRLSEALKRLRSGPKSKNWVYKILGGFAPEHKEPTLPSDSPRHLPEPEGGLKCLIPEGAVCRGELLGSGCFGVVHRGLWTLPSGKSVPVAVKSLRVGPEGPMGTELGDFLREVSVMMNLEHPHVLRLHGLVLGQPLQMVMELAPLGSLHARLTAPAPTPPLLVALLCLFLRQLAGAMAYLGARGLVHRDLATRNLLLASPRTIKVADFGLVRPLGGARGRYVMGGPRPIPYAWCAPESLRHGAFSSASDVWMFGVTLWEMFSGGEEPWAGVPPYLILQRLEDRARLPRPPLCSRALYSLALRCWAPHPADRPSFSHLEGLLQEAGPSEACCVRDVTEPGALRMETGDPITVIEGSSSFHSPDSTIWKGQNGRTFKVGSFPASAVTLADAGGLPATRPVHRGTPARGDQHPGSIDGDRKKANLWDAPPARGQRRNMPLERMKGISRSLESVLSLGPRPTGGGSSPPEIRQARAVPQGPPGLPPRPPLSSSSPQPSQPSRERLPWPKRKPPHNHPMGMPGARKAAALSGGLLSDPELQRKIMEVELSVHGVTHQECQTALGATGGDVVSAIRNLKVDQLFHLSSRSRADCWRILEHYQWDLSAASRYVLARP

[2] = biological target: T2, FLAG-TNK1 AAA (human) (UniProt Q13470)
T2 sequence: T1 sequence with S500A, S502A, S505A

[3] = biological target: T3, FLAG-TNK1 S68A (human) (UniProt Q13470)
T3 sequence: T1 sequence with S68A

Substance: 14-3-3 (endogenous, isoform not told) (human (endogenous in HEK-293T or A549))
- binding [1]: binds
- binding [2]: no binding
- binding [3]: binds

Reference: PMC8429728, “TNK1 is a ubiquitin-binding and 14-3-3-regulated kinase that can be targeted to block tumor growth” (Nature Communications, 2021)
